Values from PubChem BioAssay AID504784 (Drosophila RNAi Screening Center, 2011).

- Assay: 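Search for regulators of lipid droplet storage in oleate-fed fly cells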 (primary screen)
- System: Drosophila Kc167 embryonic cells
- Reagent: long dsRNA against Drosophila genes, about 250 ng dsRNA per well
- Duration: 4 days
- Treatment: cells fed 400 µM oleic acid bound to BSA
- Measured: 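Cells imaged and segmented; ratio of lipid droplet area to nuclear area, log-transformed, then normalised as a B-score over the screen; higher means more stored lipid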
- Reading the numbers: droplet/nuclear area B-score: higher = more stored lipid (overstorage)
The screen tested about 17,000 reagents; below is an unselected part of those with a known target gene and a result. 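Each column is one replicate's B-score; the combined score over replicates was not deposited, so single values may mislead.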 Names joined by + are all predicted targets of the reagent. Further read-outs or replicates are left out here. Reagent sequences are not shown.

predicted target | amplicon | droplet/nuclear area B-score, replicate 1 | droplet/nuclear area B-score, replicate 2
Spn42Dd | DRSC05024 | -0.232 | 0.843
Spn42Dd | DRSC22060 | 0.0761 | -0.207
Jasper | DRSC16352 | -1.68 | 1.37
CG3502 + CG9863 | DRSC04578 | 0.00689 | 0.193
CG32638 | DRSC18968 | -1.34 | 0.213
CG3868 | DRSC10380 | 0.769 | 1.04
CG5160 | DRSC02821 | 0.0096 | 0.253
qua | DRSC03598 | -1.08 | 0.757
CG5347 | DRSC19942 | -0.0197 | -1.16
CG15097 | DRSC06526 | -0.617 | 0.0682
m | DRSC20181 | 2.11 | 0.0298
CG42262 (retired record) | DRSC17628 | 1.52 | 0.0267
CG42262 (retired record) | DRSC17974 | 0.88 | -0.549
CG4115 | DRSC15545 | 0.152 | 0.0598
Agpat4 | DRSC10446 | -1.23 | -0.439
CG10508 | DRSC11612 | -0.522 | -0.241
CG10508 | DRSC11613 | -1.56 | 0.35
Oatp26F | DRSC02149 | 0.036 | -0.96
Oatp26F | DRSC02272 | -0.101 | -0.62
Oatp26F | DRSC02695 | -0.492 | 2.06
eff | DRSC16940 | -0.339 | 1.86
CG31832 | DRSC22067 | 0.946 | -1.35
Ced-12 | DRSC02840 | -2.21 | -1.18
CG32633 | DRSC18987 | 2.39 | 2.15
yps | DRSC11411 | 0.0217 | -1.76
Stam | DRSC03444 | -0.358 | 0.171
Asator | DRSC17136 | -0.938 | 0.198
jtb | DRSC06868 | -0.338 | 0.677
CG5781 | DRSC02893 | 1.04 | 1.13
Pph13 | DRSC00775 | 2.49 | 0.0279
Pph13 | DRSC23162 | 0.0255 | 2.34
CG7794 | DRSC16313 | -0.457 | -0.0221
zetaCOP | DRSC11412 | 10.1 | 12.1
MED16 | DRSC04506 | 1.53 | 0.123
karr | DRSC20681 | -0.837 | -0.255
CG30338 | DRSC05166 | 0.135 | -0.0731
CG4291 | DRSC00650 | -0.763 | -0.0279
Su(P) | DRSC11291 | 3.1 | -1.41
Cad96Ca | DRSC14220 | -0.071 | -0.0111
Cad96Ca | DRSC16693 | 0.0004 | 0.0438
Acox3 | DRSC03251 | 0.346 | -0.256
CG3500 | DRSC04379 | 1.18 | -0.638
CG3909 | DRSC14150 | -1.67 | -0.814
Cpr65Ec | DRSC11025 | -0.42 | -0.858
Act57B | DRSC04042 | -1.46 | 0.0469
CG1309 | DRSC08302 | 0.0544 | 0.0473
CG9626 | DRSC16525 | 1.96 | -0.0099
PsGEF (retired record) | DRSC18600 | 0.672 | 0.0973
PsGEF (retired record) | DRSC18601 | 0.0503 | 0.141
bin | DRSC10332 | 1.1 | 1.78
CG11779 + CG5835 | DRSC15886 | -1.75 | -0.127
CG8584 | DRSC07217 | -1.08 | -1.05
CG12869 | DRSC06208 | -0.957 | -0.569
gsb-n | DRSC04021 | 0.994 | 0.948
gsb-n | DRSC04693 | 0.105 | 0.0822
Klp59D | DRSC04118 | -0.5 | -0.988
CG17190 | DRSC15184 | -3.03 | -0.267
CG34168 | DRSC01938 | -1.85 | -1.84
Ntf-2r | DRSC02019 | -0.0719 | -1.04
CG11426 | DRSC11658 | -0.536 | 1.1
ND-24L | DRSC10650 | -1.2 | -0.1
Mpv17 | DRSC17198 | -0.647 | -0.406
CG8545 | DRSC07210 | 0.0958 | 0.048
mon2 | DRSC03112 | 0.0166 | 0.381
mRpS25 | DRSC19598 | 1.94 | 0.674
snoRNA:Me28S-C3420b + RpS11 | DRSC07396 | 1.34 | -1.46
CG31100 | DRSC14453 | -0.535 | 1.64
CG31100 | DRSC14455 | -0.135 | -0.913
AOX4 | DRSC15337 | 1.29 | 0.745
CG32572 | DRSC19525 | -0.171 | -1.06
CG32572 | DRSC19526 | 0.836 | 0.00467
CG8089 | DRSC07074 | -0.251 | 1.43
FMRFa | DRSC07428 | 0.34 | 0.416
Scr | DRSC12604 | -3.49 | -4.44
Scr | DRSC23141 | 2.52 | 0.0199
sug | DRSC06855 | 0.329 | 1.47
NT1 | DRSC08530 | -1.63 | -2.04
NT1 | DRSC22895 | 4.02 | 0.435
p120ctn | DRSC07753 | -1.16 | -0.16
Sur-8 | DRSC15794 | 0.447 | -1.38
CG9095 | DRSC20150 | -0.262 | -3.97
SmydA-7 | DRSC07340 | 0.0192 | -0.0433
CG15435 | DRSC00450 | 0.719 | 0.615

Limited to “droplet/nuclear area B-score, replicate 1”, for 14 of the entries above:
Mpv17 [DRSC17198]: -0.647
CG8545 [DRSC07210]: 0.0958
mon2 [DRSC03112]: 0.0166
mRpS25 [DRSC19598]: 1.94
snoRNA:Me28S-C3420b + RpS11 [DRSC07396]: 1.34
CG31100 [DRSC14453]: -0.535
CG31100 [DRSC14455]: -0.135
AOX4 [DRSC15337]: 1.29
CG32572 [DRSC19525]: -0.171
CG32572 [DRSC19526]: 0.836
CG8089 [DRSC07074]: -0.251
FMRFa [DRSC07428]: 0.34
Scr [DRSC12604]: -3.49
Scr [DRSC23141]: 2.52
